# Measured values published in US20110052565A1.
# These are yes or no findings as the source states them, for the method shown. Some entries that bind do so weakly or less than the wild type.
# T1: porcine pancreatic α-amylase (porcine) (UniProt P00690)
# T1 sequence (looked up): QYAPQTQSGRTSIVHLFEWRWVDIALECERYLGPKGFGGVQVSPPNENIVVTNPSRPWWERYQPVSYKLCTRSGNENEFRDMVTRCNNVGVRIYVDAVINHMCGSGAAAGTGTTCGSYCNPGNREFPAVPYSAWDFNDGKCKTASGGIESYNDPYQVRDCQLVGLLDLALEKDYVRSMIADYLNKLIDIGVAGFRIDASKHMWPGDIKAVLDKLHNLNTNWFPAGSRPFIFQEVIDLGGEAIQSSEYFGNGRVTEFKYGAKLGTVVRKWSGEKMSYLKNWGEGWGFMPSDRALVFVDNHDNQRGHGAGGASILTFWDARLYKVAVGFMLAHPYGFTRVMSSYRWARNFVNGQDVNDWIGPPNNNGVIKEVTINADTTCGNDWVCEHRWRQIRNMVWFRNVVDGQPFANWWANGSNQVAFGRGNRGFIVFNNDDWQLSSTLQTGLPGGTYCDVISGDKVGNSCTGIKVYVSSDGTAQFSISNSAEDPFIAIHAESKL
# How the values were obtained:
# protein A [1] = molecular target: protein A (UniProt P38507); experiment: ELISA, immobilized VH, protein A/HRP conjugate
# protein A [2] = molecular target: protein A (UniProt P38507); experiment: protein A binding, second mark of the column Monomer/protein A binding
# protein A [3] = molecular target: protein A (UniProt P38507); experiment: SPR, protein A immobilized, VH at 0.1-2 µM
# [4] = molecular target: T1, porcine pancreatic α-amylase (porcine); experiment: phage ELISA, round 3 of heat denaturation panning; VH displayed on phage; member by Table 2, column R3
# [5] = molecular target: T1, porcine pancreatic α-amylase (porcine); experiment: ELISA, immobilized porcine pancreatic α-amylase, His6-tagged VH, anti-His-IgG/HRP
# protein A [6] = molecular target: protein A (UniProt P38507); experiment: SPR, protein A immobilized, VH at 0.1-4 µM
binding (protein A [1]),binding (protein A [2]),binding (protein A [3]),binding [4],binding [5],binding (protein A [6]),Binder
binds,binds,,,,,"huVHAm302 (protein, N-terminus pyroglutamine (pyroQ)) VH: QVQLVESGGGLIKPGGSLRLSCAASGDTVSDESMTWVRQAPGKGLEWVSAISSSGGSTYYADSVKGRFTISRDNSKNTVYLQMNSLRAEDTAVYYCVTDNRSCQTSLCTSTTRSWGQGTMVTVSSGSEQKLSEEDLNHHHHHH"
binds,binds,,,,,"huVHAm428 (protein, not shown: small tags and cut ends) VH: QVQLVESGGGLIKPGGSLRLSCAASGFSLSDDCMGWVRQAPGKGLEWVSAISSSGGSTYYADSVKGRFTISRDNSKNTVYLQMNSLRAEDTAVYYCVTGNQACKHEPWPDEALLLGPRDNVTVSS"
binds,binds,,,,,"huVHAm315 (protein, not shown: small tags and cut ends) VH: QVQLVESGGGLIKPGGSLRLSCAASGDMFSSEGMAWVRQAPGKGLEWVSAISSSGGSTYYADSVKGRFTISRDNSKNTVYLQMNSLRAEDTAVYYCVAAPTTCTSHNCAEPFRSWGQETMVTVSS"
binds,binds,,,,,"huVHAm427 (protein, not shown: small tags and cut ends) VH: QVQLVESGGGLIKPGGSLRLSCAASGVTLSPECMAWVRQAPGKGLEWVSAISSSGGSTYYADSVKGRFTISRDNSKNTVYLQMNSLRAEDTAVYYCVSCEGENAFWGQGTMVTASS"
binds,binds,,,,,"huVHAm431 (protein, not shown: small tags and cut ends) VH: QVQLVESGGGLIKPGGSLRLSCAASGYTVSSECMGWVRQAPGKGLEWVSAISSSGGSTYYADSVKGRFTISRDNSKNTVYLQMNSLRAEDTAVYYCVRDSKNCHDKDCTRPYCSWGQGTMVTVSS"
binds,binds,binds,,,,"huVHAm309 (protein, not shown: small tags and cut ends) VH: QVQLVESGGGLIKPGGSLRLSCAASGVNFSNEGMAWVRQAPGKGLEWVSAISSSGGSTYYADSVKGRFTISRDNSKNTVYLQMNSLRAEDTAVYYCVTAQRACANSPCPGSITSWGQETMVTVSS"
binds,binds,,binds,binds,,"huVHAm304 (protein, not shown: small tags and cut ends) VH: VQLVESGGGLIEPGGSLRLSCAASGFSFSDEGMAWVRQAPGKGLEWVSAISSSGGSTYYADSVKGRFTISRDNSKNTVYLQMNSLRAEDTAVYYCVRLPKQCTSPDCETEVSSWGQRTMVTVSS"
binds,binds,,,,binds,"huVHAm416 (protein, not shown: small tags and cut ends) VH: QVQLVESGGGLIKPGGSLRLSCAASGVSFTDDCMAWVRQAPGKGLEWVSAISSSGGSTYYADSVKGRFTISRDNSKNTVYLQMNSLRAEDTAVYYCVADHTQCRQPECESQLCSWGQGTMVTVSS"
binds,binds,,,,,"huVHAm316 (protein, not shown: small tags and cut ends) VH: QVQLVESGGGLIKPGGSLRLSCAASGDRFTYESMGWVRQAPGKGLEWVSAISSSGGSTYYADSVKGRFTISRDNSKNTVYLQMNSLRAEDTAVYYCVALETACTRPACAHTPRFWGQGTMVTVSS"
